These are yes or no findings as the source states them, for the method shown. Some binding calls cover weakened binding; strength is not graded here.

Sequences of proteins named here, by UniProt entry; tags and fusion partners are left off. Residues count along the entry.
UniProt P14778, residues 18-336: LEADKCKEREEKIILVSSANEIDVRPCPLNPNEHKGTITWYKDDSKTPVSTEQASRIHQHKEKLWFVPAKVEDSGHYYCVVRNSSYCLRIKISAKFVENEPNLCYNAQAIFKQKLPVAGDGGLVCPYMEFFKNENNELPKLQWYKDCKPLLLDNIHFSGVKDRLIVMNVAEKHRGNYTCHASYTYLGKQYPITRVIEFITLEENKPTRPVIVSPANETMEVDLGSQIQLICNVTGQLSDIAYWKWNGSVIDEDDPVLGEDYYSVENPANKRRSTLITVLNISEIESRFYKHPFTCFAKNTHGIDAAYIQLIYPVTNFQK
UniProt P18510, residues 26-177: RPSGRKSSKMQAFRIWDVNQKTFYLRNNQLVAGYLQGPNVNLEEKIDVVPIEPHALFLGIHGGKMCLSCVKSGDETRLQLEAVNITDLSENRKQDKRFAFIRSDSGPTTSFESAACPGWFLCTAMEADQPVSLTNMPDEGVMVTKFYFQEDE

In patent publication US7700318 (AMPROTEIN, dated 2010) one finds binding data, which are given here for one substance.

Assay [1] concerns the target recombinant human IL-1 receptor extracellular domain (human) (UniProt P14778). Kind of assay: IL-1 receptor binding ELISA (FIG. 5).
The target is the same in assay [2]. Kind of assay: ELISA: test proteins coated on 96-well plate, IL-1 receptor extracellular domain incubated at 37 C, rabbit anti human IL-1 receptor antibodies and goat anti rabbit HRP (FIG. 5). (ELISA stands for enzyme-linked immunosorbent assay.)

As for “IL-1ra (KINERET) (from UniProt P18510 26-177) (ligand)”, the binding result in assay [1] and in assay [2] was “binds” throughout.
